Patent US11123413B2, “Carbapenemases for use with antibiotics for the protection of the intestinal microbiome” (priority 2015, dated 2021)

Assay: P2A concentration estimate and specific activity in cell lysates (CENTA assay, P2A protein standard)
Format: biochemical
Conditions: BLR (DE3) P2A Clone 1 lysate, replicates 1 and 2
Description: To achieve an estimate of the amount of P2A protein in each of the lysates, dilutions of the lysates (5 ul, 2.5 ul, 1.3 ul, and 0.63 ul) were evaluated on SDS/PAGE compared to dilutions of a purified P2A standard protein (2.0 ug, 1.0 ug, 0.5 ug, 0.25 ug, 0.13 ug). Based on the P2A protein band intensities, an estimate of the amount of P2A protein in each of the lysates was obtained. The biological activity of the P2A protein in the cell lysates under the different lysing conditions was evaluated using the CENTA chromogenic assay compared to the biological activity of the P2A protein standard. The biological activity was normalized based on the P2A protein concentration estimate and an estimated P2A specific activity was obtained. […] The P2A expression cassette without the leader will be used for future studies.
Based on the P2A protein band intensities, an estimate of the amount of P2A protein in each of the lysates was obtained. The biological activity of the P2A protein in these cell lysates was evaluated using the CENTA chromogenic assay compared to the biological activity of the P2A protein standard. The biological activity was normalized based on the P2A protein concentration estimate and an estimated P2A specific activity was obtained.

B1: P2A: broad spectrum carbapenemase, class B metallo-enzyme requiring zinc, SEQ ID NO: 37; P2A-21 = product of strain SYT-PP0602-21 (protein)
chain: ETGTISISQLNKNVWVHTELGYFNGEAVPSNGLVLNTSKGLVLVDSSWDNKLTKELIEMVEKKFQKRVTDVIITHAHADRIGGITALKERGIKAHSTALTAELAKNSGYEEPLGDLQTITSLKFGNTKVETFYPGKGHTEDNIVVWLPQYQILAGGCLVKSAEAKDLGNVADAYVNEWSTSIENVLKRYGNINSVVPGHGEVGDKGLLLHTLDLLK
Concentration (induction 18 o/n): 0.2 mg/mL and 0.1 mg/mL | Concentration (induction 25 on): 0.2 mg/mL | Concentration (induction 37 3 hrs): 0.1 mg/mL

“And” between values parts separate entries of the source, which are not always exact repeats. Equal entries are not always repeated.
